The source of these data is paper PMC11693757.

Protein sequences, listed by entry. Tags and fused reporters are not part of them.
UniProt P42337: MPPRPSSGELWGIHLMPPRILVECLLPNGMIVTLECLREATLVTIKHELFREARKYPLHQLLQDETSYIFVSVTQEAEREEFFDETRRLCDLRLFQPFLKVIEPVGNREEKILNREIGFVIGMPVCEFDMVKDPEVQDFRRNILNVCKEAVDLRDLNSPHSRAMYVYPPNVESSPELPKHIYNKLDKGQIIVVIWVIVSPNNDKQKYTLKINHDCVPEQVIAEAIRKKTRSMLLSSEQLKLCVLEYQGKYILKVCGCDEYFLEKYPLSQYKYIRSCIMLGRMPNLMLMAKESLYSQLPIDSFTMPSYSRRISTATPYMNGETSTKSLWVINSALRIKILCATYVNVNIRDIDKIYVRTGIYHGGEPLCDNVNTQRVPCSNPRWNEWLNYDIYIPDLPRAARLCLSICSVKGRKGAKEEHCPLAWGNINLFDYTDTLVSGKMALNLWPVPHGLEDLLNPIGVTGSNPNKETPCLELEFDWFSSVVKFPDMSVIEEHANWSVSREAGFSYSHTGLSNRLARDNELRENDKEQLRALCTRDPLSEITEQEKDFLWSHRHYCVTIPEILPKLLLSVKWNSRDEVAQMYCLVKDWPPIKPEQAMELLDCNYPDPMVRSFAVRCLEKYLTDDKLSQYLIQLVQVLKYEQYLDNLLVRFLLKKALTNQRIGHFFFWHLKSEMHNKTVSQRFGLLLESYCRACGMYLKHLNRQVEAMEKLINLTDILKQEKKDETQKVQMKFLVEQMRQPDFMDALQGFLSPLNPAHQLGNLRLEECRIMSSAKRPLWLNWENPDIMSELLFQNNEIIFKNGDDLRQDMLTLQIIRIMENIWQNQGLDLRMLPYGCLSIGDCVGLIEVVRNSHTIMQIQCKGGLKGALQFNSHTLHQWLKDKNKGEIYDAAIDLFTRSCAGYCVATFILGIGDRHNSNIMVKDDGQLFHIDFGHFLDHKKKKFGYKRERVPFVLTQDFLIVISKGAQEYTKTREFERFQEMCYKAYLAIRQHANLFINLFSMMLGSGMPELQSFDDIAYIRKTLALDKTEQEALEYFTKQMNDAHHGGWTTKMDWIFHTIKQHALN

No constants are given. Whether binding was seen depends on the method and setting. In cells and extracts the contact can be indirect. Some binding calls cover weakened binding; strength is not graded here.

For the experiment, the target named is T1, Asparagine endopeptidase (AEP), 4T1 cells (mouse (endogenous in 4T1)) (UniProt O89017).
T1 sequence: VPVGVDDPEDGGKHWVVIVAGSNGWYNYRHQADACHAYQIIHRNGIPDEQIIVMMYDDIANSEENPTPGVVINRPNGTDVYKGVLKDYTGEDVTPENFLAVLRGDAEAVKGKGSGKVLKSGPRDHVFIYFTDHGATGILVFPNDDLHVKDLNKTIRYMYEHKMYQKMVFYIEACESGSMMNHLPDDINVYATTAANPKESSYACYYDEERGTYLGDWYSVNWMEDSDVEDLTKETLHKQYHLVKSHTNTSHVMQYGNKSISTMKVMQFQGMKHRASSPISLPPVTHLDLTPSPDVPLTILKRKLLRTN
The experiment is described as follows: co-IP; interaction of AEP and p110α in 4T1 cells (Fig. S5A); methods not shown.

“p110α, 4T1 cells (from UniProt P42337 1-1068) (enzyme)”: the binding entry is on record as “binds”.
